Among the data in patent US20190374607A1 are binding values, retold here.

The test concerns the target atypical chemokine receptor 3 (ACKR3), P25106. Briefly: proximity ligation assay on hPPAEC. The following applies: remark: other sources report otherwise.

Results are given in words; binding and its absence hold for the method and conditions named. In cells and extracts the contact can be indirect. Some binding calls cover weakened binding; strength is not graded here.

B1: chemokine (C-X-C) motif receptor (CXCR) 4, P61073 1-352 (receptor, UniProt P61073 1-352, looked up)
chain: MEGISIYTSDNYTEEMGSGDYDSMKEPCFREENANFNKIFLPTIYSIIFLTGIVGNGLVILVMGYQKKLRSMTDKYRLHLSVADLLFVITLPFWAVDAVANWYFGNFLCKAVHVIYTVNLYSSVLILAFISLDRYLAIVHATNSQRPRKLLAEKVVYVGVWIPALLLTIPDFIFANVSEADDRYICDRFYPNDLWVVVFQFQHIMVGLILPGIVILSCYCIIISKLSHSKGHQKRKALKTTVILILAFFACWLPYYIGISIDSFILLEIIKQGCEFENTVHKWISITEALAFFHCCLNPILYAFLGAKFKTSAQHALTSVSRGSSLKILSKGKRGGHSSVSTESESSSFHSS
For the molecule B1, the binding result is recorded as “binds”.
